The source of these data is article PMC9122528.

In assay [1] the target is GFP-μ2 (μ2 protein of MRV T3D^S with an N-terminal GFP moiety) (Mammalian orthoreovirus serotype 3 strain Dearing (T3D^S)). As to the kind of experiment: co-IP; GFP-tagged μ2 constructs transfected in 293T (24 h), lysate (1% Triton X-100, 150 mM NaCl, 20 mM Tris-HCl pH 7.5) DNAse and RNAse treated, GFP-Trap beads 4 h at 4°C, western blot of endogenous partners. For orientation: A western blot detects proteins with antibodies after separation by electrophoresis.

Assay [2] concerns the target μ2-GFP (μ2 protein of MRV T3D^S with a C-terminal GFP moiety) (Mammalian orthoreovirus serotype 3 strain Dearing (T3D^S)). Described as above.

No constants are given. Whether binding was seen depends on the method and setting. In cells and extracts the contact can be indirect. Binding can be weak; no strength is given.

B1: PRPF6 (protein, UniProt O94906 1-941)
chain: MNKKKKPFLGMPAPLGYVPGLGRGATGFTTRSDIGPARDANDPVDDRHAPPGKRTVGDQMKKNQAADDDDEDLNDTNYDEFNGYAGSLFSSGPYEKDDEEADAIYAALDKRMDERRKERREQREKEEIEKYRMERPKIQQQFSDLKRKLAEVTEEEWLSIPEVGDARNKRQRNPRYEKLTPVPDSFFAKHLQTGENHTSVDPRQTQFGGLNTPYPGGLNTPYPGGMTPGLMTPGTGELDMRKIGQARNTLMDMRLSQVSDSVSGQTVVDPKGYLTDLNSMIPTHGGDINDIKKARLLLKSVRETNPHHPPAWIASARLEEVTGKLQVARNLIMKGTEMCPKSEDVWLEAARLQPGDTAKAVVAQAVRHLPQSVRIYIRAAELETDIRAKKRVLRKALEHVPNSVRLWKAAVELEEPEDARIMLSRAVECCPTSVELWLALARLETYENARKVLNKARENIPTDRHIWITAAKLEEANGNTQMVEKIIDRAITSLRANGVEINREQWIQDAEECDRAGSVATCQAVMRAVIGIGIEEEDRKHTWMEDADSCVAHNALECARAIYAYALQVFPSKKSVWLRAAYFEKNHGTRESLEALLQRAVAHCPKAEVLWLMGAKSKWLAGDVPAARSILALAFQANPNSEEIWLAAVKLESENDEYERARRLLAKARSSAPTARVFMKSVKLEWVQDNIRAAQDLCEEALRHYEDFPKLWMMKGQIEEQKEMMEKAREAYNQGLKKCPHSTPLWLLLSRLEEKIGQLTRARAILEKSRLKNPKNPGLWLESVRLEYRAGLKNIANTLMAKALQECPNSGILWSEAIFLEARPQRRTKSVDALKKCEHDPHVLLAVAKLFWSQRKITKAREWFHRTVKIDSDLGDAWAFFYKFELQHGTEEQQEEVRKRCESAEPRHGELWCAVSKDIANWQKKIGDILRLVAGRIKNTF
Regarding B1, the binding result in assay [1] and in assay [2] was “binds” in each case.

B2: U2AF35 (protein, UniProt Q01081 1-240)
chain: MAEYLASIFGTEKDKVNCSFYFKIGACRHGDRCSRLHNKPTFSQTIALLNIYRNPQNSSQSADGLRCAVSDVEMQEHYDEFFEEVFTEMEEKYGEVEEMNVCDNLGDHLVGNVYVKFRREEDAEKAVIDLNNRWFNGQPIHAELSPVTDFREACCRQYEMGECTRGGFCNFMHLKPISRELRRELYGRRRKKHRSRSRSRERRSRSRDRGRGGGGGGGGGGGGRERDRRRSRDRERSGRF
Regarding B2, the binding result in assay [1] and in assay [2] was “no binding” in each case.
